The data set can be described thus: general procedure: solution-phase peptide synthesis; COMU/DIEA. The conditions noted are these: conjugation step.

Some peptides are written in HELM: one residue between dots, names in brackets for other building blocks, links after the first $.

Consider PEPTIDE1{[bGal-AAC-C6].F.F.F.F}$$$$V2.0, for which the conjugation yield is recorded as 66%.

The values above are taken from article PMC7917936 (International Journal of Molecular Sciences, 2021).
